Data taken from PubChem BioAssay AID264 (DTP/NCI, 2004).
The list is a part of this screen's results and no random one: it is rich in T/C values a quarter to a half above the control, in often repeated tests (any T/C) and in doses without a T/C. Other doses and runs of a compound stand elsewhere. T/C: endpoint of the treated group in % of that of the vehicle group. Schedule codes are those of the source, read here as Q, the interval in days (D) or hours (H), X, the number of doses. Some T/C values are followed by the survivors on the day toxicity was checked, most often the fifth; without a count, all were alive then. Some values lie below zero, which means that the treated tumours became smaller. Some doses were run more than once; the values are given in rising order. Some entries give survivors of the animals treated and no T/C: the source files T/C as zero there, which appears to mark a toxic dose or a test without result, not a measured value. Survivors were counted at the toxicity check, usually on the fifth day, unless a day is given; later deaths do not show. Numbered stars: 1 amine (or outer) side, 2 acyl side, 3 side chain; on linkers, the order of the positions; unused ones are H or OH. Bridge positions count the residues as written; N and C are the ends. Square brackets hold non-standard residues; d marks the D form. Peptide text beside a SMILES is read from it. I, II: the chains in the order shown. Actinocin(1to9) = Cc1c2oc3c(C)ccc(C(=O)[*:2])c3nc-2c(C(=O)[*:1])c(N)c1=O; NMeV = CN[CH](C(=O)O)C(C)C; Aze = O=C(O)[CH]1CCN1; Sar = CNCC(=O)O

Test system: nude mice, LX-1 lung xenograft intrarenal, tumor weight T/C
Assay: NCI In Vivo Anticancer Drug Screen. Data for tumor model Human Lung LX-1 Xenograft (intrarenal inoculation) in NU/NU Swiss (nude) mice
Details: T/C endpoint: mean tumor weight change, higher T/C = larger tumour; for T/C: evaluated on day 11
In short: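 Activity was scored by measuring tumors in treated animals and in vehicle controls, then reporting the treated result as a fraction of the control result.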

c1cnc2ncncc2n1
T/C (dose: 50.0 mg/kg/injection, schedule: Q04DX003 (sc), vehicle: saline with Tween-80): 128 % of control | survivor count (dose: 100.0 mg/kg/injection, schedule: Q04DX003 (sc), vehicle: saline with Tween-80): 3 of 5 on day 11 | survivor count (dose: 200.0 mg/kg/injection, schedule: Q04DX003 (sc), vehicle: saline with Tween-80): 1 of 6 on day 11 and 3 of 6 on day 11 | survivor count (dose: 400.0 mg/kg/injection, schedule: Q04DX003 (sc), vehicle: saline with Tween-80): 0 of 6 on day 11 and 1 of 6 on day 11

C[CH2][Pb]([CH2]C)([CH2]C)[O]C(=O)COc1ccccc1
survivor count (dose: 36.0 mg/kg/injection, schedule: Q04DX003 (sc), vehicle: saline with Tween-80): 0 of 6 on day 11 | survivor count (dose: 72.0 mg/kg/injection, schedule: Q04DX003 (sc), vehicle: saline with Tween-80): 0 of 6 on day 11

CSc1ncnc2c1ncn2C1OC(CO)C(O)C1O (configuration not stated)
T/C (dose: 37.5 mg/kg/injection, schedule: Q04DX003 (sc), vehicle: saline + alcohol): 138 % of control | survivor count (dose: 300.0 mg/kg/injection, schedule: Q04DX003 (sc), vehicle: saline + alcohol): 0 of 6 on day 11

COc1cccc2c1C(=O)c1c(O)c3c(c(O)c1C2=O)CC(O)(/C(C)=N/NC(=O)CCCCC(=O)N/N=C(\C)C1(O)Cc2c(O)c4c(c(O)c2C(OC2CC(N)C(O)C(C)O2)C1)C(=O)c1c(OC)cccc1C4=O)CC3OC1CC(N)C(O)C(C)O1 (configuration not stated)
T/C (dose: 25.0 mg/kg/injection, schedule: Q04DX003 (sc), vehicle: water): 38, 41, 71, 77 % of control | T/C (dose: 50.0 mg/kg/injection, schedule: Q04DX003 (sc), vehicle: water): -61, 20, 33 [4 of 6 alive on day 11], 65 % of control | survivor count (dose: 75.0 mg/kg/injection, schedule: Q04DX003 (sc), vehicle: water): 3 of 6 on day 11 | survivor count (dose: 100.0 mg/kg/injection, schedule: Q04DX003 (sc), vehicle: water): 0 of 5 on day 11 and 0 of 6 on day 11 | survivor count (dose: 200.0 mg/kg/injection, schedule: Q04DX003 (sc), vehicle: water): 0 of 6 on day 11

C=C(OP(=O)(OC)OC)Sc1ccccc1C
survivor count (dose: 12.5 mg/kg/injection, schedule: Q04DX003 (sc), vehicle: Klucel (hydroxypropylcellulose) (HPC)): 0 of 6 on day 11 | survivor count (dose: 25.0 mg/kg/injection, schedule: Q04DX003 (sc), vehicle: Klucel (hydroxypropylcellulose) (HPC)): 0 of 6 on day 11 | survivor count (dose: 50.0 mg/kg/injection, schedule: Q04DX003 (sc), vehicle: Klucel (hydroxypropylcellulose) (HPC)): 0 of 6 on day 11 | survivor count (dose: 100.0 mg/kg/injection, schedule: Q04DX003 (sc), vehicle: Klucel (hydroxypropylcellulose) (HPC)): 0 of 6 on day 11

CC(=O)O[C@@H]1[C@@H](O)C2=C3[C@]4(C)[C@@H]1C(C)(C)C(=O)C[C@@H]4[C@]3(O)[C@H](OC(C)=O)[C@@]1(C[C@@H]1C)C2=O
survivor count (dose: 100.0 mg/kg/injection, schedule: Q01DX010 (sc), vehicle: saline with Tween-80): 1 of 2 on day 11

COc1cc([C@@H]2c3cc4c(cc3[C@@H](OC3OC5CO[C@@H](c6cccs6)OC5C(O)C3O)[C@H]3COC(=O)[C@H]23)OCO4)cc(OC)c1O (some centres not stated)
T/C (dose: 66.0 mg/kg/injection, schedule: Q01DX010 (sc), vehicle: saline): 134 % of control

Oc1ccc(O)cc1
survivor count (dose: 200.0 mg/kg/injection, schedule: Q04DX003 (sc), vehicle: saline): 3 of 6 on day 11 | survivor count (dose: 400.0 mg/kg/injection, schedule: Q04DX003 (sc), vehicle: saline): 1 of 6 on day 11

CC(=O)OCc1cc(=O)n(C)c2c3c4c(cc12)c(C)cc(=O)n4CO3
survivor count (dose: 25.0 mg/kg/injection, schedule: Q01DX010 (sc), vehicle: Klucel (hydroxypropylcellulose) (HPC)): 2 of 4 on day 11

O=C1N[C@@H]2C(=C[C@H](O)[C@@H](O)[C@H]2O)c2cc3c(c(O)c21)OCO3
survivor count (dose: 10.0 mg/kg/injection, schedule: Q04DX003 (sc), vehicle: saline with Tween-80): 0 of 6 on day 11 | survivor count (dose: 20.0 mg/kg/injection, schedule: Q04DX003 (sc), vehicle: saline with Tween-80): 0 of 6 on day 11

O=S(=O)(O)O
T/C (dose: 75.0 mg/kg/injection, schedule: Q04DX003 (sc), vehicle: Klucel (hydroxypropylcellulose) (HPC)): 129 % of control

COc1ccc(CC2C(=O)NC(C)C(=O)N(C)C3C(=O)N(C)C(Cc4ccc(O)c(c4)Oc4ccc(cc4)C3O)C(=O)NC(C)C(=O)NC(C)C(=O)N2C)cc1 (configuration not stated)
T/C (dose: 0.25 mg/kg/injection, schedule: Q01DX010 (sc), vehicle: saline with Tween-80): 138 % of control | survivor count (dose: 8.0 mg/kg/injection, schedule: Q01DX010 (sc), vehicle: saline with Tween-80): 0 of 3 on day 11

CC(Cc1ccc(O)cc1)NCC(O)c1ccc(O)c(O)c1 (configuration not stated)
survivor count (dose: 2400.0 mg/kg/injection, schedule: Q04DX003 (sc), vehicle: saline with Tween-80): 3 of 6 on day 11

Cc1c2oc3c(C)ccc(C(=O)NC4C(=O)NC(C(C)C)C(=O)N5CCCC5C(=O)N(C)CC(=O)N(C)C(C(C)C)C(=O)OC4C)c3nc-2c(C(=O)NC2C(=O)NC(C(C)C)C(=O)N3CCC3C(=O)N(C)CC(=O)N(C)C(C(C)C)C(=O)OC2C)c(N)c1=O (configuration not stated) (I: TV[Aze][Sar][NMeV] / II: TVP[Sar][NMeV]; ester I:1-I:C, II:1-II:C; linker I:N-II:N via Actinocin(1to9); configuration not given here)
survivor count (dose: 2.0 mg/kg/injection, schedule: Q04DX003 (sc), vehicle: saline + alcohol): 0 of 6 on day 11

CN1CCN(c2ccc([N+](=O)[O-])c3no[n+]([O-])c23)CC1
survivor count (dose: 300.0 mg/kg/injection, schedule: Q04DX003 (sc), vehicle: saline with Tween-80): 2 of 6 on day 11 | survivor count (dose: 600.0 mg/kg/injection, schedule: Q04DX003 (sc), vehicle: saline with Tween-80): 2 of 6 on day 11 | survivor count (dose: 1200.0 mg/kg/injection, schedule: Q04DX003 (sc), vehicle: saline with Tween-80): 0 of 6 on day 11

COc1cccc2c1C(=N)c1c(O)c3c(c(O)c1C2=O)C[C@@](O)(C(C)=O)C[C@@H]3OC1CC(N)C(O)C(C)O1 (some centres not stated)
survivor count (dose: 192.0 mg/kg/injection, schedule: Q04DX003 (sc), vehicle: water): 0 of 3 on day 11

COc1cccc2c1C(=O)c1c(O)c3c(c(O)c1C2=O)C[C@@](O)(/C(C)=N/NC(=O)c1ccc(Cl)cc1)C[C@@H]3OC1CC(N)C(O)C(C)O1 (some centres not stated)
T/C (dose: 24.0 mg/kg/injection, schedule: Q04DX003 (sc), vehicle: water): 129 % of control | survivor count (dose: 32.0 mg/kg/injection, schedule: Q01DX010 (sc), vehicle: water): 0 of 3 on day 11

Cn1/c2cc/c1=C(\c1ccc(S(=O)(=O)O)cc1)c1ccc([n-]1)/C(c1ccc(S(=O)(=O)O)cc1)=c1/cc/c([nH]1)=C(\c1ccc(S(=O)(=O)O)cc1)c1ccc([n-]1)/C=2c1ccc(S(=O)(=O)O)cc1.O.O=S(=O)(O)C(F)(F)F.[Cu+2]
T/C (dose: 100.0 mg/kg/injection, schedule: Q04DX003 (sc), vehicle: suspension in saline): 142 % of control

COC1CC(C)C(OC)C2=CC(=O)C=C(NC(=O)/C(C)=C/C=C\C(C)C(OC(N)=O)/C(C)=C\C(C)C1OC)C2=O (configuration not stated)
survivor count (dose: 100.0 mg/kg/injection, schedule: Q04DX003 (sc), vehicle: saline + alcohol): 0 of 5 on day 11
